Experimental data from publication PMC3422239.
No constants are given. Whether binding was seen depends on the method and setting. In cells and extracts the contact can be indirect. Some results given as binding are weak or reduced against the parent protein; the word gives no strength. Where a sequence is shown, tags or fusion partners need not be part of it.

By UniProt entry, the sequences of proteins in these tests, tags left out.
UniProt P62258: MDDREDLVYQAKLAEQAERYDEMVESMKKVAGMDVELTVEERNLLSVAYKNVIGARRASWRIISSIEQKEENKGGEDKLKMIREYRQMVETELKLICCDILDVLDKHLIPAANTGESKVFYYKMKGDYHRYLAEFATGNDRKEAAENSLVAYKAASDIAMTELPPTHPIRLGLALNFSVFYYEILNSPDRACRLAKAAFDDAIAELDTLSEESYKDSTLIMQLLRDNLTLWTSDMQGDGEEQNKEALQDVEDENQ
UniProt P31946: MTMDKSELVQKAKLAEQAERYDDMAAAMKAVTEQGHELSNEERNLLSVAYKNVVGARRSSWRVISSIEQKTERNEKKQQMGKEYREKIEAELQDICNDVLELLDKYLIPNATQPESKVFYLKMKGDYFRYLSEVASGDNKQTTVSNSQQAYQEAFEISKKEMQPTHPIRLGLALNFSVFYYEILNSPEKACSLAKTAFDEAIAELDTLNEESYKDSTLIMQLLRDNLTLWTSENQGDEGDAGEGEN

B1: GFP-IRS2-S573A (protein, UniProt P81122 1-1321)
chain: MASAPLPGPPASAGGDGPNLNNNNNNNNHSVRKCGYLRKQKHGHKRFFVLRGPGTGGDEASAAGGSPPQPPRLEYYESEKKWRSKAGAPKRVIALDCCLNINKRADAKHKYLIALYTKDEYFAVAAENEQEQEGWYRALTDLVSEGRSGEGGSGTTGGSCSASLPGVLGGSAGAAGCDDNYGLVTPATAVYREVWQVNLKPKGLGQSKNLTGVYRLCLSARTIGFVKLNCEQPSVTLQLMNIRRCGHSDSFFFIEVGRSAVTGPGELWMQADDSVVAQNIHETILEAMKALKELFEFRPRSKSQSSGSSATHPISVPGARRHHHLVNLPPSQTGLVRRSRTDSLAATPPAAKCTSCRVRTASEGDGGAAGGAGTAGGRPMSVAGSPLSPGPVRAPLSRSHTLSAGCGGRPSKVTLAPAGGALQHSRSMSMPVAHSPPAATSPGSLSSSSGHGSGSYPLPPGSHPHLPHPLHHPQGQRPSSGSASASGSPSDPGFMSLDEYGSSPGDLRAFSSHRSNTPESIAETPPARDGSGGELYGYMSMDRPLSHCGRPYRRVSGDGAQDLDRGLRKRTYALTTPARQRQVPQPSSASLDEYTLMRATFSGSSGRLCPSFPASSPKVAYNPYPEDYGDIEIGSHKSSSSNLGADDGYMPMTPGAALRSGGPNSCKSDDYMPMSPTSVSAPKQILQPRLAAALPPSGAAVPAPPSGVGRTFPVNGGGYKASSPAESSPEDSGYMRMWCGSKLSMENPDPKLLPNGDYLNMSPSEAGTAGTPPDFSAALRGGSEGLKGIPGHCYSSLPRSYKAPCSCSGDNDQYVLMSSPVGRILEEERLEPQATPGAGTFGAAGGSHTQPHHSAVPSSMRPSAIGGRPEGFLGQRCRAVRPTRLSLEGLQTLPSMQEYPLPTEPKSPGEYINIDFGEAGTRLSPPAPPLLASAASSSSLLSASSPASSLGSGTPGTSSDSRQRSPLSDYMNLDFSSPKSPKPSTRSGDTVGSMDGLLSPEASSPYPPLPPRPSTSPSSLQQPLPPAPGDLYRLPPASAATSQGPTAGSSMSSEPGDNGDYTEMAFGVAATPPQPIVAPPKPEGARVASPTSGLKRLSLMDQVSGVEAFLQVSQPPDPHRGAKVIRADPQGGRRRHSSETFSSTTTVTPVSPSFAHNSKRHNSASVENVSLRKSSEGSSTLGGGDEPPTSPGQAQPLVAVPPVPQARPWNPGQPGALIGCPGGSSSPMRRETSVGFQNGLNYIAIDVRGEQGSLAQSQPQPGDKNSWSRTRSLGGLLGTVGGSGASGVCGGPGTGALPSASTYASIDFLSHHLKEATVVKE
B2: GFP-IRS2-S556A/S573A (protein, UniProt P81122 1-1321)
chain: MASAPLPGPPASAGGDGPNLNNNNNNNNHSVRKCGYLRKQKHGHKRFFVLRGPGTGGDEASAAGGSPPQPPRLEYYESEKKWRSKAGAPKRVIALDCCLNINKRADAKHKYLIALYTKDEYFAVAAENEQEQEGWYRALTDLVSEGRSGEGGSGTTGGSCSASLPGVLGGSAGAAGCDDNYGLVTPATAVYREVWQVNLKPKGLGQSKNLTGVYRLCLSARTIGFVKLNCEQPSVTLQLMNIRRCGHSDSFFFIEVGRSAVTGPGELWMQADDSVVAQNIHETILEAMKALKELFEFRPRSKSQSSGSSATHPISVPGARRHHHLVNLPPSQTGLVRRSRTDSLAATPPAAKCTSCRVRTASEGDGGAAGGAGTAGGRPMSVAGSPLSPGPVRAPLSRSHTLSAGCGGRPSKVTLAPAGGALQHSRSMSMPVAHSPPAATSPGSLSSSSGHGSGSYPLPPGSHPHLPHPLHHPQGQRPSSGSASASGSPSDPGFMSLDEYGSSPGDLRAFSSHRSNTPESIAETPPARDGSGGELYGYMSMDRPLSHCGRPYRRVAGDGAQDLDRGLRKRTYALTTPARQRQVPQPSSASLDEYTLMRATFSGSSGRLCPSFPASSPKVAYNPYPEDYGDIEIGSHKSSSSNLGADDGYMPMTPGAALRSGGPNSCKSDDYMPMSPTSVSAPKQILQPRLAAALPPSGAAVPAPPSGVGRTFPVNGGGYKASSPAESSPEDSGYMRMWCGSKLSMENPDPKLLPNGDYLNMSPSEAGTAGTPPDFSAALRGGSEGLKGIPGHCYSSLPRSYKAPCSCSGDNDQYVLMSSPVGRILEEERLEPQATPGAGTFGAAGGSHTQPHHSAVPSSMRPSAIGGRPEGFLGQRCRAVRPTRLSLEGLQTLPSMQEYPLPTEPKSPGEYINIDFGEAGTRLSPPAPPLLASAASSSSLLSASSPASSLGSGTPGTSSDSRQRSPLSDYMNLDFSSPKSPKPSTRSGDTVGSMDGLLSPEASSPYPPLPPRPSTSPSSLQQPLPPAPGDLYRLPPASAATSQGPTAGSSMSSEPGDNGDYTEMAFGVAATPPQPIVAPPKPEGARVASPTSGLKRLSLMDQVSGVEAFLQVSQPPDPHRGAKVIRADPQGGRRRHSSETFSSTTTVTPVSPSFAHNSKRHNSASVENVSLRKSSEGSSTLGGGDEPPTSPGQAQPLVAVPPVPQARPWNPGQPGALIGCPGGSSSPMRRETSVGFQNGLNYIAIDVRGEQGSLAQSQPQPGDKNSWSRTRSLGGLLGTVGGSGASGVCGGPGTGALPSASTYASIDFLSHHLKEATVVKE
B3: GFP-IRS2-S556A (protein, UniProt P81122 1-1321)
chain: MASAPLPGPPASAGGDGPNLNNNNNNNNHSVRKCGYLRKQKHGHKRFFVLRGPGTGGDEASAAGGSPPQPPRLEYYESEKKWRSKAGAPKRVIALDCCLNINKRADAKHKYLIALYTKDEYFAVAAENEQEQEGWYRALTDLVSEGRSGEGGSGTTGGSCSASLPGVLGGSAGAAGCDDNYGLVTPATAVYREVWQVNLKPKGLGQSKNLTGVYRLCLSARTIGFVKLNCEQPSVTLQLMNIRRCGHSDSFFFIEVGRSAVTGPGELWMQADDSVVAQNIHETILEAMKALKELFEFRPRSKSQSSGSSATHPISVPGARRHHHLVNLPPSQTGLVRRSRTDSLAATPPAAKCTSCRVRTASEGDGGAAGGAGTAGGRPMSVAGSPLSPGPVRAPLSRSHTLSAGCGGRPSKVTLAPAGGALQHSRSMSMPVAHSPPAATSPGSLSSSSGHGSGSYPLPPGSHPHLPHPLHHPQGQRPSSGSASASGSPSDPGFMSLDEYGSSPGDLRAFSSHRSNTPESIAETPPARDGSGGELYGYMSMDRPLSHCGRPYRRVAGDGAQDLDRGLRKRTYSLTTPARQRQVPQPSSASLDEYTLMRATFSGSSGRLCPSFPASSPKVAYNPYPEDYGDIEIGSHKSSSSNLGADDGYMPMTPGAALRSGGPNSCKSDDYMPMSPTSVSAPKQILQPRLAAALPPSGAAVPAPPSGVGRTFPVNGGGYKASSPAESSPEDSGYMRMWCGSKLSMENPDPKLLPNGDYLNMSPSEAGTAGTPPDFSAALRGGSEGLKGIPGHCYSSLPRSYKAPCSCSGDNDQYVLMSSPVGRILEEERLEPQATPGAGTFGAAGGSHTQPHHSAVPSSMRPSAIGGRPEGFLGQRCRAVRPTRLSLEGLQTLPSMQEYPLPTEPKSPGEYINIDFGEAGTRLSPPAPPLLASAASSSSLLSASSPASSLGSGTPGTSSDSRQRSPLSDYMNLDFSSPKSPKPSTRSGDTVGSMDGLLSPEASSPYPPLPPRPSTSPSSLQQPLPPAPGDLYRLPPASAATSQGPTAGSSMSSEPGDNGDYTEMAFGVAATPPQPIVAPPKPEGARVASPTSGLKRLSLMDQVSGVEAFLQVSQPPDPHRGAKVIRADPQGGRRRHSSETFSSTTTVTPVSPSFAHNSKRHNSASVENVSLRKSSEGSSTLGGGDEPPTSPGQAQPLVAVPPVPQARPWNPGQPGALIGCPGGSSSPMRRETSVGFQNGLNYIAIDVRGEQGSLAQSQPQPGDKNSWSRTRSLGGLLGTVGGSGASGVCGGPGTGALPSASTYASIDFLSHHLKEATVVKE

Columns and labels:
[1] = biological target: GST-14-3-3ε (UniProt P62258); test: pull-down; 2 µg GST-14-3-3β or ε on glutathione Sepharose 4B incubated 2 hours at 4°C in lysis buffer with lysates of transfected HEK293 cells; blot with GFP and GST antibodies; cells IGF-1 or wortmannin before IGF-1; only the target purified
[2] = biological target: GST-14-3-3β (UniProt P31946); test: as above
[3] = biological target: GST-14-3-3ε (UniProt P62258); test: pull-down; data not shown: GST pulldown of the single S556A mutant with GST-14-3-3; only the target purified
[4] = biological target: GST-14-3-3β (UniProt P31946); test: as above

Binder	binding [1]	binding [2]	binding [3]	binding [4]
B1	binds	binds	–	–
B2	binds	binds	–	–
B3	–	–	binds	binds
